This note sets out measurements from US20260183275A1, “SUBSTITUTED QUINOLONE COMPOUNDS USEFUL AS INHIBITORS OF TLR9” (Bristol-Myers Squibb Company, priority 2022, published 2026).

The chains behind the UniProt entries cited, without tags or fusion partners. Residues count along the entry.
UniProt Q9NR96, 26-1032 limits assumed: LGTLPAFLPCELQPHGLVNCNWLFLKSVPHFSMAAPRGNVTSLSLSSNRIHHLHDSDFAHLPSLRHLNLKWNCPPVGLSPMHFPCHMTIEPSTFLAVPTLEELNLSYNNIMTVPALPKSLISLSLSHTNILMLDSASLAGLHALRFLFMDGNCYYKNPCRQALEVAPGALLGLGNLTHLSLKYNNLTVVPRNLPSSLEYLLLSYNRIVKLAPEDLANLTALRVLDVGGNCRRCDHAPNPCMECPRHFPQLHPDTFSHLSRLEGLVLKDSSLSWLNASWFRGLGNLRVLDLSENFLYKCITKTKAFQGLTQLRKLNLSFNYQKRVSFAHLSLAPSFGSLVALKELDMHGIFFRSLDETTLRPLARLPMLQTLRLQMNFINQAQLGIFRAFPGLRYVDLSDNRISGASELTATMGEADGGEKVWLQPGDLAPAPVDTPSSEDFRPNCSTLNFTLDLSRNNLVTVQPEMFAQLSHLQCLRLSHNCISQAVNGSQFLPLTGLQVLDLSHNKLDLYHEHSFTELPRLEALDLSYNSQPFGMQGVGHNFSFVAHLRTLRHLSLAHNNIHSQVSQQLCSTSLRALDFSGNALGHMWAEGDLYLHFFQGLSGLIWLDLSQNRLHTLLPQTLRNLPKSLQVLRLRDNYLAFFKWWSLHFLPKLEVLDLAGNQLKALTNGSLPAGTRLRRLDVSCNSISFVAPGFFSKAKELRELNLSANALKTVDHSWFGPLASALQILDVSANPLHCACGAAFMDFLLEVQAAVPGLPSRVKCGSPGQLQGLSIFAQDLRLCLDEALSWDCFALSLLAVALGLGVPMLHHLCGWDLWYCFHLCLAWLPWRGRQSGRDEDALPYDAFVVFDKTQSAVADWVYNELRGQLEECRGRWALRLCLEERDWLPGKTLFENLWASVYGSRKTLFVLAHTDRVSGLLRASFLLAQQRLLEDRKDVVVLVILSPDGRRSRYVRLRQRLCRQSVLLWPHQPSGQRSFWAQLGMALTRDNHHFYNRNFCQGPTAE
UniProt Q9NR97, 27-1041 limits assumed: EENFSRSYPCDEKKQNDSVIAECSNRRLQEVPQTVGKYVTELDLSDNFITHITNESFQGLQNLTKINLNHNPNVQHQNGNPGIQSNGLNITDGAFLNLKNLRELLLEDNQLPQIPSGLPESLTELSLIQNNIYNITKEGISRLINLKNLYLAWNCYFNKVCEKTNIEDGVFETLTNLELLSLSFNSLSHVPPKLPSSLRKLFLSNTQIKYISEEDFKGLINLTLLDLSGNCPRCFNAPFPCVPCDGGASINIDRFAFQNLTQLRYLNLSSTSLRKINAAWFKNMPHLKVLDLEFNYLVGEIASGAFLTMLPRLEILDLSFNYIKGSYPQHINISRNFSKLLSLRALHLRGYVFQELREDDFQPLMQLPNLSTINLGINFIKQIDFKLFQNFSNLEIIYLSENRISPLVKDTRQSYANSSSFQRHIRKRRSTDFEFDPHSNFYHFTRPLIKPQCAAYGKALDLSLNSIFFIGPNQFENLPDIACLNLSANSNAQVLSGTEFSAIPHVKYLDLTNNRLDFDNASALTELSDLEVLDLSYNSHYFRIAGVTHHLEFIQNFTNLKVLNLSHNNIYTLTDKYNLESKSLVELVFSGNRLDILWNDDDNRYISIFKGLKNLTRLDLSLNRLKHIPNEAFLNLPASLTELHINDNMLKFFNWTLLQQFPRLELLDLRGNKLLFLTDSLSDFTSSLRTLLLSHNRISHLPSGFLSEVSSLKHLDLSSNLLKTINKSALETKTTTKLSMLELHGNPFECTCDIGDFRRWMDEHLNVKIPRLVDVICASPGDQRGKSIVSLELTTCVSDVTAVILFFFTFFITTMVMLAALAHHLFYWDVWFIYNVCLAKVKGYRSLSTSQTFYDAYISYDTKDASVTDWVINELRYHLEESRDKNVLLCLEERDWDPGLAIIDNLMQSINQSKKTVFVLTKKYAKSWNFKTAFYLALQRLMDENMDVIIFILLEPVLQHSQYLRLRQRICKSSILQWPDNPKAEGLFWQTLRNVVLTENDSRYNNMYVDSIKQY
UniProt Q9NYK1, 27-1049 limits assumed: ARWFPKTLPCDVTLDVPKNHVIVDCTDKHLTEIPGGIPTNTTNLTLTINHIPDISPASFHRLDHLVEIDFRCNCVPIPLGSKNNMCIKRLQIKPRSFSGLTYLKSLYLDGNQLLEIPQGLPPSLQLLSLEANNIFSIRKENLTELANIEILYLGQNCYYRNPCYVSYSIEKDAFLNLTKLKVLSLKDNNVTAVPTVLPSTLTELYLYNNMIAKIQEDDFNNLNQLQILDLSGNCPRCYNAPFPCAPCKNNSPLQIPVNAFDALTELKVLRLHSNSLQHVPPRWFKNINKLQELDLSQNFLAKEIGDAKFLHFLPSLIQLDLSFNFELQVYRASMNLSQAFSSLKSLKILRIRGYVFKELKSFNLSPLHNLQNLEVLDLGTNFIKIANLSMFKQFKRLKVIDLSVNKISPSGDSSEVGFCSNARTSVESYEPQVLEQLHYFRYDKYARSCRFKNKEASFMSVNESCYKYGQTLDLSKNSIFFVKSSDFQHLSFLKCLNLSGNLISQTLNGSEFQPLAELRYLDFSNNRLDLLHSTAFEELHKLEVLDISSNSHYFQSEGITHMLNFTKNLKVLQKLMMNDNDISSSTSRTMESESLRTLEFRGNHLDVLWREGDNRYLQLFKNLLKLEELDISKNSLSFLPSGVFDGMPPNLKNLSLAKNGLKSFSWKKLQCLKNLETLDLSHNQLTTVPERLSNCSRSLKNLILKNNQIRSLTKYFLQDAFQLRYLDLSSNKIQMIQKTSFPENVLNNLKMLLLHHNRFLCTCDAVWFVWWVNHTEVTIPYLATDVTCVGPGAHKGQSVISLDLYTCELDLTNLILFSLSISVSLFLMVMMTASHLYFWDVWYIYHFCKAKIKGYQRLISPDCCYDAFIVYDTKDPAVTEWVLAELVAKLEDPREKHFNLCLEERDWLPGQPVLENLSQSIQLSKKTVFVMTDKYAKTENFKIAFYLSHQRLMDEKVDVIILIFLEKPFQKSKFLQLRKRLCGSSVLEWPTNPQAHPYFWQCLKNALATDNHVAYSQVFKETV

The match of structure and compound is tentative. Where only a bound is given, the exact number is not on record here.

One test addresses human TLR9 (Homo sapiens, UniProt Q9NR96). As to the kind of experiment: TLR9 inhibition reporter assay (HEK-Blue cells, SEAP reporter). Particulars: read-out: TLR9 IC50; HEK-Blue cells overexpressing human TLR9; stimulated with ODN2006 5 nM; SEAP read after 22 hour; dose range 0.05 nM-50 μM. The procedure:
(§1) HEK-Blue™-cells (Invivogen) overexpressing human TLR7, TLR8 or TLR9 receptors were used for screening inhibitors of these receptors using an inducible SEAP (secreted embryonic alkaline phosphatase) reporter gene under the control of the IFN-β minimal promoter fused to five NF-κB and AP-1-binding sites. Briefly, cells are seeded into Greiner 384 well plates (15000 cells per well for TLR7, 20,000 for TLR8 and 25,000 for TLR9) and then treated with test compounds in DMSO to yield a final dose response concentration range of 0.05 nM-50 μM. After a 30 minute compound pre-treatment at room temperature, the cells are then stimulated with a TLR7 ligand (gardiquimod at a final concentration of 7.5 μM), TLR8 ligand (R848 at a final concentration of 15.9 μM) or TLR9 ligand (ODN2006 at a final concentration of 5 nM) to activate NF-κB and AP-1 which induce the production of SEAP. After a 22 hour incubation at 37° C., 5% CO2, SEAP levels are determined with the addition of HEK-Blue™ Detection reagent (Invivogen), a cell culture medium that allows for detection of SEAP, according to manufacturer's specifications. The percent inhibition is determined as the % reduction in the HEK-Blue signal present in wells treated with agonist plus DMSO alone compared to wells treated with a known inhibitor.
In general terms: Reporter assays use an easily measured gene product as a stand-in for the process of interest.

The target of a further test is human TLR8 (Homo sapiens, UniProt Q9NR97). The test can be described thus: TLR8 inhibition reporter assay (HEK-Blue cells, SEAP reporter). Conditions: read-out: TLR8 IC50; HEK-Blue cells overexpressing human TLR8; stimulated with R848 15.9 μM; SEAP read after 22 hour; dose range 0.05 nM-50 μM. The protocol:
as §1

A further test has as its target human TLR7 (Homo sapiens, UniProt Q9NYK1). The test can be described thus: TLR7 inhibition reporter assay (HEK-Blue cells, SEAP reporter). Conditions: read-out: TLR7 IC50; HEK-Blue cells overexpressing human TLR7; stimulated with gardiquimod 7.5 μM; SEAP read after 22 hour; dose range 0.05 nM-50 μM. The procedure:
as §1

Turning to `CC(C)N1CCN(c2ccc(-c3ccc4c(c3)cc(-c3ccc(NC(=O)C(C)(C)O)cc3)c(=O)n4C)cc2)CC1`, at human TLR9, the IC50 (usually the concentration that gives 50% inhibition) stood at 652 nM.
Take `CC(C)N1CCN(c2ccc(-c3ccc4[nH]c(=O)c(-c5ccc(NS(C)(=O)=O)cc5)cc4c3)cc2)CC1`: the IC50 is ≥ 50000 nM on human TLR8, 171 nM on human TLR9 and 17500 nM at human TLR7.
